{"source": "paper PMC12241124", "about": "(Frontiers in Microbiology, 2025)", "test": "peptide made by a vendor", "conditions": "whole synthesis, high-performance liquid chromatography, several disulfide bridges, sequence written open", "note": "Where a sequence shows no end group, the ends are not given."}
{"sequence": "GFGCNGPWNEDDLRCHNHCKSIKGYKKKYCAKGGFVCKC", "values": [{"measurement": "final HPLC purity", "result": ">97", "unit": "%"}]}
